No constants are given. Whether binding was seen depends on the method and setting. In cells and extracts the contact can be indirect. Some results given as binding are weak or reduced against the parent protein; the word gives no strength. Where a sequence is shown, tags or fusion partners need not be part of it.
Legend:
[1] = biological target: T1, Flag-tagged Prohibitin 1 (PHB1) (UniProt P35232); experiment: co-IP; Myc-tagged TRIM21 and Flag-tagged PHB1 transiently over-expressed in CNE1 cells, harvested 48 h post-transfection; IP with antibody to Flag or Myc-tag; normal mouse IgG as control
T1 sequence: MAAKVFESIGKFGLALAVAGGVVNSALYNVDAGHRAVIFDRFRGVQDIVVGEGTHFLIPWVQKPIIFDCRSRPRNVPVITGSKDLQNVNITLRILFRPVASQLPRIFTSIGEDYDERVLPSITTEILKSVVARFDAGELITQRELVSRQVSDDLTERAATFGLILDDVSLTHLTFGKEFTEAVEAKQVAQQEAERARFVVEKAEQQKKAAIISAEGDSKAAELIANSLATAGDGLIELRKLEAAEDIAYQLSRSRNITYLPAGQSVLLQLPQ

Chains of the proteins cited; added tags and fusions are not shown.
UniProt P19474: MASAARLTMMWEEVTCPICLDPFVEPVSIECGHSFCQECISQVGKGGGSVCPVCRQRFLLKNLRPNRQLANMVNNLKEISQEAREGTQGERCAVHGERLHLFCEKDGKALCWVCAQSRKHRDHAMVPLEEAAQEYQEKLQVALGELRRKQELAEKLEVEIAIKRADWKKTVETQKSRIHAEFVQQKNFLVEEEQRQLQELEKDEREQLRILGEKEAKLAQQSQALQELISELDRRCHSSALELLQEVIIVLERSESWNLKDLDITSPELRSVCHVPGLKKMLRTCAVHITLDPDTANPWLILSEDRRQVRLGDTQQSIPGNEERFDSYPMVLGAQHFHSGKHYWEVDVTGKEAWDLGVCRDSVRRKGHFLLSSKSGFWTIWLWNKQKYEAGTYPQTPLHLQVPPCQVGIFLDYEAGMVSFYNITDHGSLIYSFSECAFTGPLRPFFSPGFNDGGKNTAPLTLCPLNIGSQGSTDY

[2] = biological target: T1, Flag-tagged Prohibitin 1 (PHB1); experiment: co-IP; flag-tagged PHB1, myc-tagged LPLUNC1 and his-tagged TRIM21 co-expressed in CNE1 cells; IP with anti Flag antibody, IB for LPLUNC1 and TRIM21
[3] = biological target: T1, Flag-tagged Prohibitin 1 (PHB1); experiment: co-IP; HNE1 and CNE1 cells co-transfected with Flag-PHB1 and Myc-LPLUNC1; IP with anti-Flag or anti-myc antibody; normal mouse IgG as negative control; lysis in RIPA buffer
[4] = biological target: T1, Flag-tagged Prohibitin 1 (PHB1); experiment: co-IP; flag-tagged PHB1, myc-tagged LPLUNC1 and his-tagged TRIM21 co-expressed in CNE1 cells; IP with anti Flag antibody, IB for LPLUNC1 and TRIM21; remark: listed apart in the source

Question: “Myc-tagged TRIM21 (from UniProt P19474 1-475) (enzyme)” was tested. Which binding [1] did it give?
Answer: Its binding is “binds”.

Question: Which binding [2] does the source give for “his-tagged TRIM21 (from UniProt P19474 1-475) (enzyme)” here?
Answer: The binding was “binds weakly”.

B1: Myc-tagged long palate, lung and nasal epithelium clone 1 (LPLUNC1) (protein, UniProt Q8TDL5 22-484)
chain: TLSPTAVLILGPKVIKEKLTQELKDHNATSILQQLPLLSAMREKPAGGIPVLGSLVNTVLKHIIWLKVITANILQLQVKPSANDQELLVKIPLDMVAGFNTPLVKTIVEFHMTTEAQATIRMDTSASGPTRLVLSDCATSHGSLRIQLLHKLSFLVNALAKQVMNLLVPSLPNLVKNQLCPVIEASFNGMYADLLQLVKVPISLSIDRLEFDLLYPAIKGDTIQLYLGAKLLDSQGKVTKWFNNSAASLTMPTLDNIPFSLIVSQDVVKAAVAAVLSPEEFMVLLDSVLPESAHRLKSSIGLINEKAADKLGSTQIVKILTQDTPEFFIDQGHAKVAQLIVLEVFPSSEALRPLFTLGIEASSEAQFYTKGDQLILNLNNISSDRIQLMNSGIGWFQPDVLKNIITEIIHSILLPNQNGKLRSGVPVSLVKALGFEAAESSLTKDALVLTPASLWKPSSPVSQ
Question: For B1, which binding [3] is on record?
Answer: The binding was “binds”.

Question: And the binding [4]?
Answer: The binding was “binds”.

Reference: PMC6756001
